Results as given in PMC6022672.
These are yes or no findings as the source states them, for the method shown. In cells and extracts the contact can be indirect. Binding calls can cover weak binding; strength is not graded here.

Biological target: HSP70 (Arabidopsis (endogenous in Col-0, pad2.1 and AtECS1 plants))
Experiment: co-IP; about 3 mg total protein of Col-0, pad2.1 and AtECS1 incubated overnight at 4 °C with protein A magnetic beads and rabbit polyclonal anti-HSP70 antibody; pellet washed three times; eluate blotted with rabbit polyclonal anti-GST phi antibody

binding: binds
B1: Glutathione-S-transferase F2 (protein, UniProt P46422 1-212)
chain: MAGIKVFGHPASIATRRVLIALHEKNLDFELVHVELKDGEHKKEPFLSRNPFGQVPAFEDGDLKLFESRAITQYIAHRYENQGTNLLQTDSKNISQYAIMAIGMQVEDHQFDPVASKLAFEQIFKSIYGLTTDEAVVAEEEAKLAKVLDVYEARLKEFKYLAGETFTLTDLHHIPAIQYLLGTPTKKLFTERPRVNEWVAEITKRPASEKVQ
